Some of the results follow. Most entries show no effect beyond the scatter of the controls.

By UniProt entry, the sequences of proteins in these tests, tags left out. Where a name states a change or a piece, a line headed by the entry shows the natural chain unless it says otherwise.
UniProt Q80V72: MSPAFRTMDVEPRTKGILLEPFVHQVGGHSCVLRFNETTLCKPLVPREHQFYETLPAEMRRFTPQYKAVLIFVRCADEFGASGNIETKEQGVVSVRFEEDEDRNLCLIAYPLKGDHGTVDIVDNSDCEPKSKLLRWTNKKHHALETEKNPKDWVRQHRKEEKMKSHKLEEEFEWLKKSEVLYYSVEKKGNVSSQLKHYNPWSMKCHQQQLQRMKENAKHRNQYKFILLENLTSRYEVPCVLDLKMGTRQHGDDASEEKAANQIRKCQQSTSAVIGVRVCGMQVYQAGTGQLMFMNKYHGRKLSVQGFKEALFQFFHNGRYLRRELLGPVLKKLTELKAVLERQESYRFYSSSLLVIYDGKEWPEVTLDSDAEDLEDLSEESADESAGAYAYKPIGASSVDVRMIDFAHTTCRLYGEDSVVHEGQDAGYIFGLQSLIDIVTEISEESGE
UniProt Q80UM7: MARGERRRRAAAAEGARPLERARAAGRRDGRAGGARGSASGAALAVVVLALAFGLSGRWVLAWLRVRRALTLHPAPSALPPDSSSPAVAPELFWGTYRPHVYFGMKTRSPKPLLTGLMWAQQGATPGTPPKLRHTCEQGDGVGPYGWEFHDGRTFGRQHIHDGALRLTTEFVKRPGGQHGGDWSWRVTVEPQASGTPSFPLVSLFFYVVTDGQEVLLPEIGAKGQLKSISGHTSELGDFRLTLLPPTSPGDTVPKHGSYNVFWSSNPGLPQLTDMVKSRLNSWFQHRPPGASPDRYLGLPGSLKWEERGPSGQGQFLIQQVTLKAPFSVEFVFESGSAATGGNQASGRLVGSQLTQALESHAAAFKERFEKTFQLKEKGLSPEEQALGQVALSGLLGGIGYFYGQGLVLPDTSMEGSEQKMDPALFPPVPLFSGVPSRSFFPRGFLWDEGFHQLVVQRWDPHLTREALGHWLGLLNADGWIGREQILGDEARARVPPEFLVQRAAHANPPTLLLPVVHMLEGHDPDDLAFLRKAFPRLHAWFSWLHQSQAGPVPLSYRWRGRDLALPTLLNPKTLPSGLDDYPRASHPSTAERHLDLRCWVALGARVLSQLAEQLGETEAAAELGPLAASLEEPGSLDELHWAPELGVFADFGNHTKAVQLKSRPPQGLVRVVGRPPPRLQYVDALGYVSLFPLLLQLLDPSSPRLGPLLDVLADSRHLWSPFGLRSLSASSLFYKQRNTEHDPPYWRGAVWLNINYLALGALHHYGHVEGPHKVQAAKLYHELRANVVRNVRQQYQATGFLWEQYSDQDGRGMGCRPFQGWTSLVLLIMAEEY
UniProt Q7TND5: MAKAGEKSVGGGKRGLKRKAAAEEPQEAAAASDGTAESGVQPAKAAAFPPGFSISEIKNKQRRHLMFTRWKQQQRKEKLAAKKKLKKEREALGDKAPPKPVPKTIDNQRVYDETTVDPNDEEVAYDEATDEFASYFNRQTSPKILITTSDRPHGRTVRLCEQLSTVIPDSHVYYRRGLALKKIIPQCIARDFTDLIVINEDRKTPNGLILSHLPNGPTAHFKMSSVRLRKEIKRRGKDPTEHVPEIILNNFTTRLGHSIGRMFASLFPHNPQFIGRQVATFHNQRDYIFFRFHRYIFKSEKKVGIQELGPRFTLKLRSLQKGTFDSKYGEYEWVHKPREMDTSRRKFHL
UniProt Q7TQG0: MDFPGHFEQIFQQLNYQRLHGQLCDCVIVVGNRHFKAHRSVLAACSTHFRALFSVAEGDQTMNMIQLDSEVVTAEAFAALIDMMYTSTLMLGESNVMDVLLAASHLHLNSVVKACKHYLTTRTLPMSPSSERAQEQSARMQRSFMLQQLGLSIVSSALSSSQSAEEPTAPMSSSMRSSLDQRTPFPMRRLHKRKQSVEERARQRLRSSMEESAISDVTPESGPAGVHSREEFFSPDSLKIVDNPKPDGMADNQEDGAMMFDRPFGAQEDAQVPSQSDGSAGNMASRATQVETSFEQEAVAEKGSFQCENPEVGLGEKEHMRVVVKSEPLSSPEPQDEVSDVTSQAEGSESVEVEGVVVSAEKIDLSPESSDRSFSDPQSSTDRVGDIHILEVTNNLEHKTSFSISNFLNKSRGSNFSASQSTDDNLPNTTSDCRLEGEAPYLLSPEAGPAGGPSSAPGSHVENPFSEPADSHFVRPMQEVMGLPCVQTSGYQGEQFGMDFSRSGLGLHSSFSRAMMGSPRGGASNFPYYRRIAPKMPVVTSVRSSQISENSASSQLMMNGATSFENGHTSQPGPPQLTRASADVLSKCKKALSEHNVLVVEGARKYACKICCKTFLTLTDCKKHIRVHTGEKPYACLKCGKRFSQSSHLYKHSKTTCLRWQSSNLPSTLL
UniProt Q7TQE6: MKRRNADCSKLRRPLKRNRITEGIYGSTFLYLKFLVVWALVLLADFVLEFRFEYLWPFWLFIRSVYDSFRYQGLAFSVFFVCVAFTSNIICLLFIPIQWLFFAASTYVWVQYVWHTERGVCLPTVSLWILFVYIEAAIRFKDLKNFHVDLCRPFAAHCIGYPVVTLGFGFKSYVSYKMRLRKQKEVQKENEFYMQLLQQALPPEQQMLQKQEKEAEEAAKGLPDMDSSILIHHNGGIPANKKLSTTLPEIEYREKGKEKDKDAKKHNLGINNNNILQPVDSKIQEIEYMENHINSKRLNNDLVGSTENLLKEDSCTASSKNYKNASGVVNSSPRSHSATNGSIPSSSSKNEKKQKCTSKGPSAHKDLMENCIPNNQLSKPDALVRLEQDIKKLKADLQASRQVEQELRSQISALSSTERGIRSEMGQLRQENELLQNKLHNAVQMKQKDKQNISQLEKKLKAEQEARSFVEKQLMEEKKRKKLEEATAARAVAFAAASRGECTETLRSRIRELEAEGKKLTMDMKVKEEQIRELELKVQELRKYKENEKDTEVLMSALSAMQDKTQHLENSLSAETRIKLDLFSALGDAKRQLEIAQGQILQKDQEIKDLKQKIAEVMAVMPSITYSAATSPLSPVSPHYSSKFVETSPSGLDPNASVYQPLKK
UniProt Q80TA6: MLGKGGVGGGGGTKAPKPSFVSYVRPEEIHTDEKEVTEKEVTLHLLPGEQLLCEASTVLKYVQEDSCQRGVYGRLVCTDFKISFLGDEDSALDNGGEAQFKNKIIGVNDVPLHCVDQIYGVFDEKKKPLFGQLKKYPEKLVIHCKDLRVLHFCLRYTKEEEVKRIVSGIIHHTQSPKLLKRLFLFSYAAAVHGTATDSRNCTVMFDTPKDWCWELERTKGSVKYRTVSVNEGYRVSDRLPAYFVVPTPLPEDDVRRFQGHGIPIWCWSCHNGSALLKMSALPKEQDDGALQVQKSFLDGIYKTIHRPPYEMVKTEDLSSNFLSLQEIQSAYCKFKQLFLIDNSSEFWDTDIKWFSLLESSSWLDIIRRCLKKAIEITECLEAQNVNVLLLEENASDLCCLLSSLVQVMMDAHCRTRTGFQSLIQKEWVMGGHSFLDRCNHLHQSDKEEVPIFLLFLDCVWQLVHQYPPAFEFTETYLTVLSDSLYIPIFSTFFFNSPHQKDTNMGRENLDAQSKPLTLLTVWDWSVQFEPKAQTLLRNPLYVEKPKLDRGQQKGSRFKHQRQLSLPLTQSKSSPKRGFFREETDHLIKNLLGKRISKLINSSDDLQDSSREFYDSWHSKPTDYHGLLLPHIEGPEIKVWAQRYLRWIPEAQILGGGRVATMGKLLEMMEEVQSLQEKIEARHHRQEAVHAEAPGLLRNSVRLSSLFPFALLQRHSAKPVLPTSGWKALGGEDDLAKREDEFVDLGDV
UniProt Q7TT00: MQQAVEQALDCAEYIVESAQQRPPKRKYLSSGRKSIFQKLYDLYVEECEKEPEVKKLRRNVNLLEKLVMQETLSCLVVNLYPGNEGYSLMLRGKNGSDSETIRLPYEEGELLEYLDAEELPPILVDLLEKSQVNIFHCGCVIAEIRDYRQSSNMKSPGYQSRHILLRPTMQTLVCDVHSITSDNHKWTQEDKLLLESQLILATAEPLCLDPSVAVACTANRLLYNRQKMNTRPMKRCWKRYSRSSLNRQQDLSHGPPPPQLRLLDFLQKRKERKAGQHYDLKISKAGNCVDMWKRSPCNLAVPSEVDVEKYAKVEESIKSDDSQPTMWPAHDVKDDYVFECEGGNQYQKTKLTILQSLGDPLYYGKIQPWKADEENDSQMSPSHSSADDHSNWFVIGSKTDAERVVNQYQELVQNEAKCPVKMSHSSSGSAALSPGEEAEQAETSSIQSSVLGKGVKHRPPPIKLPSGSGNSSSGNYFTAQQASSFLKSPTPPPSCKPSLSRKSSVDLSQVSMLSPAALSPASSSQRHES
UniProt Q6ZQL4: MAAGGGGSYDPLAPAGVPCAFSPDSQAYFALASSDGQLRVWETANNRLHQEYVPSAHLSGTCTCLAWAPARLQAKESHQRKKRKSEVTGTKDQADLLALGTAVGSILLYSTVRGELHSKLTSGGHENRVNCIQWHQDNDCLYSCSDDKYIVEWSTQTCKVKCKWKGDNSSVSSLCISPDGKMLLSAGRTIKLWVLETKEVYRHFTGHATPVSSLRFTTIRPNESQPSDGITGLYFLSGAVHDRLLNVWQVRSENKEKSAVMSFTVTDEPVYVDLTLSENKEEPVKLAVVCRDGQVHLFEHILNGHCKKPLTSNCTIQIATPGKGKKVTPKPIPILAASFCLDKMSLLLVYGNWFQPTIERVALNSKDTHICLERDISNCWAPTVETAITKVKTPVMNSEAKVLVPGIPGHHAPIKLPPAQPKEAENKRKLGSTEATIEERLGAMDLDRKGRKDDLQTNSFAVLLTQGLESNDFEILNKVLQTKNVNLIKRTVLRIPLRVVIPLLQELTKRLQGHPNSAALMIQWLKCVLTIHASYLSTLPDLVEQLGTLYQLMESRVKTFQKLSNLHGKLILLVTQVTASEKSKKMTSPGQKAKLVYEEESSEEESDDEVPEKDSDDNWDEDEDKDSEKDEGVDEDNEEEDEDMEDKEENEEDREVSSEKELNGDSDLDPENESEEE
UniProt Q7TPM9: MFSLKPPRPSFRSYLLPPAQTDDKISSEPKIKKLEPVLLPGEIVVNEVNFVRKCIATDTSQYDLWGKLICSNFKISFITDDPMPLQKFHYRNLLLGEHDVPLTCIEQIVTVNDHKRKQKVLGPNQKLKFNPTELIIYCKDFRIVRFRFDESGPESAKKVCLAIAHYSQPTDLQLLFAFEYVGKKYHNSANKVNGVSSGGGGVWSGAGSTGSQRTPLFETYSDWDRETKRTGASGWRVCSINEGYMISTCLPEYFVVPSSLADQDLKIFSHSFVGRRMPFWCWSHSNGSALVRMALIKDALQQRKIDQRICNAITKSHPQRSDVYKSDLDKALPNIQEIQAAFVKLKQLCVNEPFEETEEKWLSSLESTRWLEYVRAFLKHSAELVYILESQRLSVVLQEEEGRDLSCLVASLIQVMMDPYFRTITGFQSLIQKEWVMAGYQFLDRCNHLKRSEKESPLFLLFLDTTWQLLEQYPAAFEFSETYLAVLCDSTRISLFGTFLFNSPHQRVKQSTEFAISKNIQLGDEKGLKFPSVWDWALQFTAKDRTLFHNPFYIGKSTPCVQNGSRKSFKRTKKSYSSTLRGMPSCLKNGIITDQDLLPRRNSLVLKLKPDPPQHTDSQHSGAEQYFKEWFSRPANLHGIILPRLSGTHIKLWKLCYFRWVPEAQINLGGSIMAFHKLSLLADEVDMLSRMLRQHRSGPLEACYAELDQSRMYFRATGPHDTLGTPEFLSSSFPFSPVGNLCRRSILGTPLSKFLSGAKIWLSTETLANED
UniProt Q7TN73: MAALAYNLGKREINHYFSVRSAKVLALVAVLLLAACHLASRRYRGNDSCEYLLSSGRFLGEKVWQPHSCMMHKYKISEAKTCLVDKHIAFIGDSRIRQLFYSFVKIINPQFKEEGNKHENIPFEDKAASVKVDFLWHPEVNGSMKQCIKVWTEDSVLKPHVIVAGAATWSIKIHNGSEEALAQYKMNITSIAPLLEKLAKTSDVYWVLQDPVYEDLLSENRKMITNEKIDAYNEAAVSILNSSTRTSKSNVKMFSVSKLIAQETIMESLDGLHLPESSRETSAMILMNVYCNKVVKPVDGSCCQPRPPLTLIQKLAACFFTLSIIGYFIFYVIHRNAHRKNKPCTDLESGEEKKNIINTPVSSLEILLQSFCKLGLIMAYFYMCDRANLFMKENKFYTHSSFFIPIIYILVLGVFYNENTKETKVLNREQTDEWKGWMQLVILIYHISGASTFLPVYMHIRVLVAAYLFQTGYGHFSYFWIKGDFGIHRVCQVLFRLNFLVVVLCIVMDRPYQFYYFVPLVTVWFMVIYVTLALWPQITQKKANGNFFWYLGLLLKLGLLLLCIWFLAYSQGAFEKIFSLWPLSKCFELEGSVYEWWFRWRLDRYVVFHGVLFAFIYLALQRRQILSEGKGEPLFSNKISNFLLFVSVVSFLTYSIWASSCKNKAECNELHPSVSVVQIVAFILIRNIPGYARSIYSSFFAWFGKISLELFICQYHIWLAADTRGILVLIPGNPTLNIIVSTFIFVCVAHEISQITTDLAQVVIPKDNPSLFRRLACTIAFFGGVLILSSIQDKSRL

Compound in this assay: CN[C@@H]1C[C@H]2O[C@@](C)([C@@H]1OC)n1c3ccccc3c3c4c(c5c6ccccc6n2c5c31)C(=O)NC4 [staurosporine]
In words: log2 fold change of tryptic peptide abundance, ligand vs vehicle (limited proteolysis) (log2 ratio); higher = more trypsin-susceptible (destabilized). Particulars: ligand concentration: 20 uM; sample: mouse liver crude lysate; replicate design: treated separately.
“UniProt Q80V72 (peptide sequence: ELLGPVLK, peptide start residue: 324)”: the log2 fold change is -0.417.

Take “UniProt Q7TPR4 (peptide sequence: HTNYNMEHIR, peptide start residue: 705)”: the log2 fold change turned out to be 0.12.

With “UniProt Q7TSJ2 (peptide sequence: AGPAWMVTR, peptide start residue: 239)”, the log2 fold change is 0.308.

For “UniProt Q6ZPQ6 (peptide sequence: TISAQPSGPSHRHDR, peptide start residue: 1282)”, the log2 fold change was -0.636.

Consider “UniProt Q80UM7 (peptide sequence: AAAAEGARPLER, peptide start residue: 10)”, for which the log2 fold change is -0.253.

In the case of “UniProt Q7TSH2 (peptide sequence: AYFHLGINEK, peptide start residue: 529)”, the log2 fold change is 0.959.

As to “UniProt Q80UY1 (peptide sequence: YYGTSMHER, peptide start residue: 66)”, the log2 fold change is -0.395.

Turning to “UniProt Q7TND5 (peptide sequence: MFASLFPHNPQFIGR, peptide start residue: 262)”, the log2 fold change was -0.232.

In the case of “UniProt Q7TQG0 (peptide sequence: SFSDPQSSTDR, peptide start residue: 373)”, the log2 fold change was -0.185.

Regarding “UniProt Q80U63 (peptide sequence: QITEEVER, peptide start residue: 421)”, the log2 fold change was 0.209.

For “UniProt Q7TN29 (peptide sequence: EDAQLPRK, peptide start residue: 168)”, the log2 fold change is -0.53.

Consider “UniProt Q7TQE6 (peptide sequence: KLEEATAAR, peptide start residue: 482)”, for which the log2 fold change is -0.325.

For “UniProt Q78WZ7 (peptide sequence: LSTTSLQLK, peptide start residue: 198)”, the log2 fold change was 0.261.

With “UniProt Q80VD1 (peptide sequence: VDLSSEQAEK, peptide start residue: 197)”, the log2 fold change was -0.389.

Turning to “UniProt Q80TA6 (peptide sequence: EETDHLIK, peptide start residue: 581)”, the log2 fold change was 0.413.

Take “UniProt Q76LS9 (peptide sequence: WIPWKGER, peptide start residue: 118)”: the log2 fold change turned out to be 0.161.

For the target “UniProt Q78IK4 (peptide sequence: LMDHGQSHPDDKDMYSTR, peptide start residue: 247)”, the log2 fold change was -0.0999.

For the target “UniProt Q78JT3 (peptide sequence: ELPFPLNTR, peptide start residue: 167)”, the log2 fold change was 0.118.

Take “UniProt Q80TG1 (peptide sequence: LVRPSSIVPLSK, peptide start residue: 601)”: the log2 fold change amounted to 0.643.

“UniProt Q80TR1 (peptide sequence: MWNDTVR, peptide start residue: 1167)”: the log2 fold change was -0.177.

In the case of “UniProt Q6ZPE2 (peptide sequence: NTLSSFSSAHMGGHGK, peptide start residue: 1262)”, the log2 fold change is -0.338.

With “UniProt Q7TT00 (peptide sequence: LLDFLQK, peptide start residue: 263)”, the log2 fold change was -0.452.

Turning to “UniProt Q80U04 (peptide sequence: RQDDTDQGR, peptide start residue: 268)”, the log2 fold change is -0.767.

Regarding “UniProt Q6ZQL4 (peptide sequence: LGAMDLDRK, peptide start residue: 441)”, the log2 fold change was 0.136.

On to “UniProt Q7TPM9 (peptide sequence: MFSLKPPRPSFR, peptide start residue: 1)”, for which the log2 fold change turned out to be 0.265.

For the target “UniProt Q80TV8 (peptide sequence: LLHNHLK, peptide start residue: 1073)”, the log2 fold change was -0.398.

For the target “UniProt Q80UW0 (peptide sequence: ETWLFSR, peptide start residue: 134)”, the log2 fold change came out at 0.223.

Take “UniProt Q80U35 (peptide sequence: ATPDEPAPASK, peptide start residue: 1040)”: the log2 fold change is -0.39.

As to “UniProt Q6ZPY7 (peptide sequence: ATASWPESHSSAESAPLAK, peptide start residue: 671)”, the log2 fold change is -0.249.

On to “UniProt Q7TN73 (peptide sequence: NKPCTDLESGEEKK, peptide start residue: 341)”, for which the log2 fold change turned out to be 0.178.

As for “UniProt Q7TPW1 (peptide sequence: TKDPEDLDREEGNGR, peptide start residue: 121)”, the log2 fold change is -0.114.
